# Measured values as given in the supplement of paper PMC8728848.
# The other results are listed elsewhere or left out.
# B1: Epa21 (Candida glabrata) (protein)
# chain: MGSSHHHHHHSSGLVPRGSHMASTPNIESHPQGCSPVDTSGIKPGLKMDLYRFPITPPGTGCWSWDWLTVTPDFPRSGYWKWPKIAEVDGVVGPLHLDSGHPTCDPLTSVLPHGFNYLQSITTTNFTMVLHGYFVPKQSGKYTFEFKADDALLLNLGAGNAFSCCDYNNSQYNQGEYLAYAIWSKNNQTATLYLEKGIYYPIRVFYHNRCCGAYMDVVYYFNDSPIPNRDFSGLLFSIPDSDSCDANI
# Experiments:
# Assay in all cases: glycan array binding signal (z-score within array); higher = stronger binding
# Details in all cases: glycan notation: IUPAC condensed, linker removed
# [1] = target: Neu5Ac(a2-3)Gal(b1-3)GlcNAc(b1-6)GalNAc
# How it was run: (§1)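 Arrays were curated from the Consortium for Functional Glycomics database, 3228 in total, and kept only where the protein sequence was available. Binding is expressed as a within-array Z-score. This score was averaged across arrays of the same protein sequence at different concentrations or buffers and across linkers, and negative values can be read as non-binding.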
# [2] = target: Neu5Ac(a2-3)Gal(b1-3)GlcNAc6S
# How it was run: as §1
# [3] = target: Neu5Ac(a2-3)Gal(b1-3)[Fuc(a1-4)]GlcNAc
# How it was run: as §1
# [4] = target: Neu5Ac(a2-3)Gal(b1-3)[Fuc(a1-4)]GlcNAc(b1-3)Gal(b1-3)[Fuc(a1-4)]GlcNAc
# How it was run: as §1
# [5] = target: Neu5Ac(a2-3)Gal(b1-3)[Fuc(a1-4)]GlcNAc(b1-3)Gal(b1-4)[Fuc(a1-3)]GlcNAc
# How it was run: as §1
# [6] = target: Neu5Ac(a2-3)Gal(b1-3)[GlcNAc(b1-6)]GalNAc
# How it was run: as §1
# [7] = target: Neu5Ac(a2-3)Gal(b1-3)[Neu5Ac(a2-6)]GalNAc
# How it was run: as §1
# [8] = target: Neu5Ac(a2-3)Gal(b1-3)[Neu5Ac(a2-6)]GlcNAc(b1-3)[Fuc(a1-3)[Gal(b1-4)]GlcNAc(b1-6)]Gal(b1-4)Glc
# How it was run: as §1
# [9] = target: Neu5Ac(a2-3)Gal(b1-3)]Neu5Ac(a2-3)Gal(b1-4)]GlcNAc
# How it was run: as §1
# Neu5Ac(a2-3)Gal(b1-4)Glc = target: Neu5Ac(a2-3)Gal(b1-4)Glc
# How it was run: as §1
# [10] = target: Neu5Ac(a2-3)Gal(b1-4)GlcNAc
# How it was run: as §1
# [11] = target: Neu5Ac(a2-3)Gal(b1-4)GlcNAc(b1-2)Man
# How it was run: as §1
# [12] = target: Neu5Ac(a2-3)Gal(b1-4)GlcNAc(b1-2)Man(a1-3)[GlcNAc(b1-4)][Neu5Ac(a2-3)Gal(b1-4)GlcNAc(b1-2)Man(a1-6)]Man(b1-4)GlcNAc(b1-4)GlcNAc
# How it was run: as §1
# [13] = target: Neu5Ac(a2-3)Gal(b1-4)GlcNAc(b1-2)Man(a1-3)[Neu5Ac(a2-3)Gal(b1-4)GlcNAc(b1-2)Man(a1-6)]Man(b1-4)GlcNAc(b1-4)GlcNAc
# How it was run: as §1
# [14] = target: Neu5Ac(a2-3)Gal(b1-4)GlcNAc(b1-2)Man(a1-3)[Neu5Ac(a2-3)Gal(b1-4)GlcNAc(b1-2)Man(a1-6)]Man(b1-4)GlcNAc(b1-4)[Fuc(a1-6)]GlcNAc
# How it was run: as §1
# [15] = target: Neu5Ac(a2-3)Gal(b1-4)GlcNAc(b1-2)Man(a1-3)[Neu5Ac(a2-6)Gal(b1-4)GlcNAc(b1-2)Man(a1-6)]Man(b1-4)GlcNAc(b1-4)GlcNAc
# How it was run: as §1
# [16] = target: Neu5Ac(a2-3)Gal(b1-4)GlcNAc(b1-2)[Neu5Ac(a2-3)Gal(b1-4)GlcNAc(b1-4)]Man(a1-3)[GlcNAc(b1-4)][Neu5Ac(a2-3)Gal(b1-4)GlcNAc(b1-2)[Neu5Ac(a2-3)Gal(b1-4)GlcNAc(b1-6)]Man(a1-6)]Man(b1-4)GlcNAc(b1-4)GlcNAc
# How it was run: as §1
# [17] = target: Neu5Ac(a2-3)Gal(b1-4)GlcNAc(b1-2)[Neu5Ac(a2-3)Gal(b1-4)GlcNAc(b1-4)]Man(a1-3)[GlcNAc(b1-4)][Neu5Ac(a2-3)Gal(b1-4)GlcNAc(b1-4)Man(a1-6)]Man(b1-4)GlcNAc(b1-4)GlcNAc
# How it was run: as §1
# [18] = target: Neu5Ac(a2-3)Gal(b1-4)GlcNAc(b1-2)[Neu5Ac(a2-3)Gal(b1-4)GlcNAc(b1-6)]Man(a1-6)[Neu5Ac(a2-3)Gal(b1-4)GlcNAc(b1-2)Man(a1-3)][GlcNAc(b1-4)]Man(b1-4)GlcNAc(b1-4)GlcNAc
# How it was run: as §1
# [19] = target: Neu5Ac(a2-3)Gal(b1-4)GlcNAc(b1-3)Gal
# How it was run: as §1
# [20] = target: Neu5Ac(a2-3)Gal(b1-4)GlcNAc(b1-3)Gal(b1-3)GlcNAc
# How it was run: as §1
# [21] = target: Neu5Ac(a2-3)Gal(b1-4)GlcNAc(b1-3)Gal(b1-4)GlcNAc
# How it was run: as §1
# [22] = target: Neu5Ac(a2-3)Gal(b1-4)GlcNAc(b1-3)Gal(b1-4)GlcNAc(b1-2)Man(a1-3)[Neu5Ac(a2-3)Gal(b1-4)GlcNAc(b1-3)Gal(b1-4)GlcNAc(b1-2)Man(a1-6)]Man(b1-4)GlcNAc(b1-4)GlcNAc
# How it was run: as §1
# [23] = target: Neu5Ac(a2-3)Gal(b1-4)GlcNAc(b1-3)Gal(b1-4)GlcNAc(b1-3)Gal(b1-4)GlcNAc
# How it was run: as §1
# [24] = target: Neu5Ac(a2-3)Gal(b1-4)GlcNAc(b1-3)Gal(b1-4)GlcNAc(b1-3)Gal(b1-4)GlcNAc(b1-2)Man(a1-3)[Neu5Ac(a2-3)Gal(b1-4)GlcNAc(b1-3)Gal(b1-4)GlcNAc(b1-3)Gal(b1-4)GlcNAc(b1-2)Man(a1-6)]GalNAc
# How it was run: as §1
# [25] = target: Neu5Ac(a2-3)Gal(b1-4)GlcNAc(b1-3)Gal(b1-4)GlcNAc(b1-3)GalNAc
# How it was run: as §1
# [26] = target: Neu5Ac(a2-3)Gal(b1-4)GlcNAc(b1-3)Gal(b1-4)GlcNAc(b1-3)[Neu5Ac(a2-3)Gal(b1-4)GlcNAc(b1-3)Gal(b1-4)GlcNAc(b1-6)]GalNAc
# How it was run: as §1
# [27] = target: Neu5Ac(a2-3)Gal(b1-4)GlcNAc(b1-3)Gal(b1-4)GlcNAc(b1-6)[Gal(b1-3)]GalNAc
# How it was run: as §1
# [28] = target: Neu5Ac(a2-3)Gal(b1-4)GlcNAc(b1-3)Gal(b1-4)[Fuc(a1-3)]GlcNAc
# How it was run: as §1
# [29] = target: Neu5Ac(a2-3)Gal(b1-4)GlcNAc(b1-3)GalNAc
# How it was run: as §1
binder,measurement,setting,value
B1,glycan array binding signal (z-score),[1],-0.052
same,glycan array binding signal (z-score),[2],-0.068
same,glycan array binding signal (z-score),[3],-0.234
same,glycan array binding signal (z-score),[4],-0.307
same,glycan array binding signal (z-score),[5],-0.065
same,glycan array binding signal (z-score),[6],1.2
same,glycan array binding signal (z-score),[7],0.141
same,glycan array binding signal (z-score),[8],-0.237
same,glycan array binding signal (z-score),[9],1.23
same,glycan array binding signal (z-score),Neu5Ac(a2-3)Gal(b1-4)Glc,0.54
same,glycan array binding signal (z-score),[10],-0.15
same,glycan array binding signal (z-score),[11],2.68
same,glycan array binding signal (z-score),[12],-0.308
same,glycan array binding signal (z-score),[13],-0.214
same,glycan array binding signal (z-score),[14],-0.327
same,glycan array binding signal (z-score),[15],-1.7
same,glycan array binding signal (z-score),[16],-0.23
same,glycan array binding signal (z-score),[17],-0.468
same,glycan array binding signal (z-score),[18],-0.463
same,glycan array binding signal (z-score),[19],-0.23
same,glycan array binding signal (z-score),[20],-0.478
same,glycan array binding signal (z-score),[21],-0.339
same,glycan array binding signal (z-score),[22],0.389
same,glycan array binding signal (z-score),[23],0.623
same,glycan array binding signal (z-score),[24],1.05
same,glycan array binding signal (z-score),[25],3.03
same,glycan array binding signal (z-score),[26],1.32
same,glycan array binding signal (z-score),[27],0.188
same,glycan array binding signal (z-score),[28],0.46
same,glycan array binding signal (z-score),[29],0.017

# Not a retest: entries from further up.
binder,measurement,setting,value
B1,glycan array binding signal (z-score),[20],-0.478
same,glycan array binding signal (z-score),[21],-0.339
